Measurements: article PMC2778522
For at least one entry, the source does not settle the construct or the ends of the probe. At least one result comes from cells or an extract, where the contact may be indirect. For some assays here: Negatives hold for the conditions tested. For some assays here: Where a protein sequence is shown, tags need not be part of it. At least one verdict was read from the data and is not stated in words by the source.

Protein sequences, listed by entry. Tags and fused reporters are not part of them.
UniProt Q04207, whole entry: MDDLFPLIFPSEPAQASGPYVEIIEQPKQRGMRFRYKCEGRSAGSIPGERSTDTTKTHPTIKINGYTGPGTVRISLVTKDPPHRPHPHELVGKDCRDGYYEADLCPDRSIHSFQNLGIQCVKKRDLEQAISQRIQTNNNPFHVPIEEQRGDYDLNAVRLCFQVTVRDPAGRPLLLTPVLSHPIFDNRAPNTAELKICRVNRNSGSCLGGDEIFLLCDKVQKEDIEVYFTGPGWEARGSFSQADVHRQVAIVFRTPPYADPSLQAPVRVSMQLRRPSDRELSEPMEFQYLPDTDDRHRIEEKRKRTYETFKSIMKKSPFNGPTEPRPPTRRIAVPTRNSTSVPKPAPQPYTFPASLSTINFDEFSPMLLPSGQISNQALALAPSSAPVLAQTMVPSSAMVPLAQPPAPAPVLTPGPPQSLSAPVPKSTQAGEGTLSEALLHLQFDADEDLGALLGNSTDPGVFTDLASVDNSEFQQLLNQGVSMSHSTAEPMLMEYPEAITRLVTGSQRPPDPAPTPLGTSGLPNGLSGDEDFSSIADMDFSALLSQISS

How the values were obtained:
Test in all cases: pull-down
[1] = biological target: T1, Bcl-3 (mouse (MEF)) (UniProt Q9Z2F6); conditions: mTNF 1 h, Pull-down: 20 mM HEPES pH 7.8, 50 mM KCl, 0.2 mM EDTA, 1.5 mM MgCl2, 1 mM DTT, 0.25% Triton, 10% glycerol, probe mixed with extract on ice 1 h, protein in an extract
T1 sequence (looked up, limits assumed): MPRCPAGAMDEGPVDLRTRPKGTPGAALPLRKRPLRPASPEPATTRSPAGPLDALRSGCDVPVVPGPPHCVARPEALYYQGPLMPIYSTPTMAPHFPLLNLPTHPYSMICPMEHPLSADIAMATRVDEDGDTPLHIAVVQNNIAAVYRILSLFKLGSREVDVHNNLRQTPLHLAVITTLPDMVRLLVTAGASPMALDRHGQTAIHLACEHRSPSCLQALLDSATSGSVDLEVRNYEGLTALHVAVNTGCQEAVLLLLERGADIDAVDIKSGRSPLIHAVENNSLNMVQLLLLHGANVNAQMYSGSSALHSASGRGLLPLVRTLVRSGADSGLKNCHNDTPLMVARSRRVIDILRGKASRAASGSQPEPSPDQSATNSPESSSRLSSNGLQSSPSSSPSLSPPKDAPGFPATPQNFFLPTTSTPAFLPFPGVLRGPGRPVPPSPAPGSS

[2] = biological target: T2, p50 (mouse (MEF)) (UniProt P25799); conditions: WT and E1A/Ras MEF nuclear extract, mTNF 1 h, not defective in E1A/Ras; Pull-down: 20 mM HEPES pH 7.8, 50 mM KCl, 0.2 mM EDTA, 1.5 mM MgCl2, 1 mM DTT, 0.25% Triton, 10% glycerol; probe mixed with extract on ice 1 h; protein in an extract
T2 sequence (looked up, limits assumed): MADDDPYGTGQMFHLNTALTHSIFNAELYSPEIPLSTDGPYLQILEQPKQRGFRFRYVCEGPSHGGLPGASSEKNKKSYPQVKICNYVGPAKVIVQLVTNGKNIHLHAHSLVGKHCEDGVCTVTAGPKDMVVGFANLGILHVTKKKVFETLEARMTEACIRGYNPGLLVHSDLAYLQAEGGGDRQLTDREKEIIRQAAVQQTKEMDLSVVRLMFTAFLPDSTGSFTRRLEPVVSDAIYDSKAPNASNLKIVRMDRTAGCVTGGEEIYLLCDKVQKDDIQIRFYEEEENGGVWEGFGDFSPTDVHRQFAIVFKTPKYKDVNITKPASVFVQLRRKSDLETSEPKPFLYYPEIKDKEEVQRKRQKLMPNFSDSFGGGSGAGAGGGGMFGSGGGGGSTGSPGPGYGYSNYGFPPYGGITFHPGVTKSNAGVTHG

[3] = biological target: T3, p52 (mouse (MEF)) (UniProt Q9WTK5); conditions: WT and E1A/Ras MEF nuclear extract, mTNF 1 h, not defective in E1A/Ras; Pull-down: 20 mM HEPES pH 7.8, 50 mM KCl, 0.2 mM EDTA, 1.5 mM MgCl2, 1 mM DTT, 0.25% Triton, 10% glycerol; probe mixed with extract on ice 1 h; protein in an extract
T3 sequence (looked up, limits assumed): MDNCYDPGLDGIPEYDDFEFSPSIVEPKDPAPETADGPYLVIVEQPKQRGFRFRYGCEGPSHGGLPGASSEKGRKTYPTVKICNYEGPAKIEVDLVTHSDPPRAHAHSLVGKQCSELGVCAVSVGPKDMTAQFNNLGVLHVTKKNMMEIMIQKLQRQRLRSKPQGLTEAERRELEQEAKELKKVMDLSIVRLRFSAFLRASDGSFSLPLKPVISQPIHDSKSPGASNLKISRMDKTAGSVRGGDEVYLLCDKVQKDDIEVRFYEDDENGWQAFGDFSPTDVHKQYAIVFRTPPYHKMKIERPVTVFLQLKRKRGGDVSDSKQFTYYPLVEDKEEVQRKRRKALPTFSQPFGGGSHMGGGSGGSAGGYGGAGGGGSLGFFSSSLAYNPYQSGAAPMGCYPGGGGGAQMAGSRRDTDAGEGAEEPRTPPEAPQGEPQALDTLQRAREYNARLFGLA

[4] = biological target: p65 (mouse (MEF)) (UniProt Q04207); conditions: WT and E1A/Ras MEF nuclear extract, mTNF 1 h, not defective in E1A/Ras; Pull-down: 20 mM HEPES pH 7.8, 50 mM KCl, 0.2 mM EDTA, 1.5 mM MgCl2, 1 mM DTT, 0.25% Triton, 10% glycerol; probe mixed with extract on ice 1 h; protein in an extract

“GTGACTTTGGAAAGTCCCGTGGAAATCCCCGGGC (double strand) [A20 promoter NF-kB site oligo]”: no binding ([1]; E1A/Ras MEF nuclear extract, Bcl-3 present in nuclei at similar amount); binds ([1]; WT MEF nuclear extract); binds [2]. “GTGACTTTGGAAAGTCCCGTGGAAATCCCCGGGC (double strand) [A20 promoter NF-kB site oligo]”: binds [3]; binds [4].
